Measurements published in patent publication US11147807B2, “Pharmaceutical composition containing DUSP1 inhibitor” (INDUSTRY-UNIVERSITY COOPERATION FOUNDATION HANYANG …, priority 2017, dated 2021).
Some results were stated once for a whole list of compounds, not compound by compound.

Columns and labels:
[1] = system: PC12 neuron; assay: Neurite outgrowth assay with NGF; format: cell-based; settings: PC12, phase contrast microscope, 72 hours
Experimental: The Neurite outgrowth assay was carried out with PC12 neuron by appropriately modifying the protocol described in Ishima et al., (2015) Potentiation of neurite outgrowth by brexpiprazole, a novel serotonin-dopamine activity modulator: A role for serotonin 5-HT1A and 5-HT2A receptors. Eur. Neuropsychopharm. 25, 505-511.
The PC12 neurite cells were distributed by the Korea Cell Line Bank (Seoul National University in Korea) and prepared in a 96-well plate at a density of 7,000 cells/well. The cell culture was performed in Dulbeco's Modified Eagle's Media (DMEM), 10% FBS and 1% Anti-anti (Gibco).

[2] = system: human liver cancer cell line Hep3B; assay: MTT analysis of liver cancer cell growth inhibition; format: cell-based; settings: […] and 5.0 μM, 96 hours
Experimental: The MTT analysis was performed to confirm the potency of inhibiting the growth of liver cancer cells of the DUSP1 inhibitor compound of the present invention.
A human liver cancer cell line Hep3B was cultured in DMEM, 10% FBS, 1% Anti-anti (Gibco) and prepared in a 96-well plate at a density of 7,000 cells/well. A normal hepatocyte line BNL-CL2 cell was cultured in DMEM, 10% FBS, 1% Anti-anti (Gibco) and prepared in a 96-well plate at a density of 3,000 cells/well.
After incubating at 37° C. for 15 hours, Compounds 6 to 8 were treated at the time of medium exchange so that final concentrations of the compounds in the medium become 2.5 μM and 5.0 μM, respectively, and the treatment conditions were adjusted so that the final DMSO concentration in the medium after treatment of the compounds can be maintained to 0.5%.
After 96 hours, a cell growth rate was measured using the Roche Cell […] Assay I (MTT) Kit. 10 μL of the MTT solution was added to each of 100 μL wells to a final concentration of 0.5 mg/ml, and then incubated at 37° C. for 4 hours and 100 μL of the solubilization buffer provided in the Kit was added.

Compound	induction of neurite outgrowth [1]	growth of the liver cancer cells (HEP3B cell line) compared to normal hepatocyte line [2]
CC(C)C(=O)c1c(Nc2cc(Cl)cc(Cl)c2)[nH]c2c(Cl)ccc([N+](=O)[O-])c2c1=O [Compound 1]	induced neurite outgrowth	–
CC(=O)c1c(Nc2ccc(Cl)cc2Cl)[nH]c2c(Cl)ccc(F)c2c1=O [Compound 3]	induced neurite outgrowth	–
CC(=O)c1c(Nc2ccc(Br)cc2Br)[nH]c2c(Cl)ccc(F)c2c1=O [Compound 4]	induced neurite outgrowth	–
O=C(c1c(Nc2cc(Cl)cc(Cl)c2)[nH]c2c(Cl)ccc([N+](=O)[O-])c2c1=O)C1CC1 [Compound 5]	induced neurite outgrowth	–
CC(=O)c1c(Nc2cc(C(F)(F)F)cc(C(F)(F)F)c2)[nH]c2c(Cl)ccc(F)c2c1=O [Compound 6]	induced neurite outgrowth	significantly inhibited
CC(C)CC(=O)c1c(Nc2cc(Cl)cc(Cl)c2)[nH]c2c(Cl)ccc([N+](=O)[O-])c2c1=O [Compound 7]	induced neurite outgrowth	significantly inhibited
CC(C)CC(=O)c1c(Nc2cccc(Cl)c2Cl)[nH]c2c(Cl)ccc([N+](=O)[O-])c2c1=O [Compound 8]	–	significantly inhibited
